Results are given in words; binding and its absence hold for the method and conditions named. Binding can be weak; no strength is given. For part of these data: In cells and extracts the contact can be indirect.
Key:
[1] = molecular target: T18 fusion to the PorM periplasmic domain (Porphyromonas gingivalis ATCC33277) (UniProt B2RLE8); assay: two-hybrid
[2] = molecular target: FLAG-tagged PorM periplasmic domain, exported to the periplasm (Porphyromonas gingivalis ATCC33277) (UniProt B2RLE8); assay: co-IP
[3] = molecular target: full-length FLAG-tagged PorM (Porphyromonas gingivalis ATCC33277) (UniProt B2RLE8); assay: co-IP
[4] = molecular target: full-length FLAG-tagged PorN (Porphyromonas gingivalis ATCC33277) (UniProt B2RLE7); assay: co-IP

Substance	binding [1]	binding [2]	binding [3]	binding [4]
T25-PorU CTD (C-terminal domain of the PorU attachment complex protein) (from UniProt B2RGP6) (domain or fragment)	binds			
T25-PpaD CTD (C-terminal domain of the PpaD peptidyl-arginine deiminase) (from UniProt Q9RQJ2) (domain or fragment)	binds			
T25-RgpB CTD (C-terminal domain of the RgpB arginine-specific cysteine proteinase) (from UniProt B2RKU0 661-736) (domain or fragment)	binds			
periplasmically-targeted VSV-G-tagged RgpB CTD (from UniProt B2RKU0 661-736) (domain or fragment)		binds	binds	binds
